Source: the supplement of paper PMC10849652
Some of the results follow.

The chains behind the UniProt entries cited, without tags or fusion partners. Where a name states a change or a piece, a line headed by the entry shows the natural chain unless it says otherwise.
UniProt Q96EP5: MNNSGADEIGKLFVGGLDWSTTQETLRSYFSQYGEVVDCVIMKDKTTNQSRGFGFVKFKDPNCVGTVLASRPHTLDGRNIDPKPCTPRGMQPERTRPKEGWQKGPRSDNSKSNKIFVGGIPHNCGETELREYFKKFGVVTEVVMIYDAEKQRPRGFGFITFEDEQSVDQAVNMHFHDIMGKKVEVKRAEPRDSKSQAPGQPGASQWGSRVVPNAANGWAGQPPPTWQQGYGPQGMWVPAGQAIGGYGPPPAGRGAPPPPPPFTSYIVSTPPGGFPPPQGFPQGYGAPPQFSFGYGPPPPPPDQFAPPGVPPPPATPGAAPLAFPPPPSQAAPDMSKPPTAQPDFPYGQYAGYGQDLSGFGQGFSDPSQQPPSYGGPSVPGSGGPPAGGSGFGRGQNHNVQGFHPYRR
UniProt Q9NTM9: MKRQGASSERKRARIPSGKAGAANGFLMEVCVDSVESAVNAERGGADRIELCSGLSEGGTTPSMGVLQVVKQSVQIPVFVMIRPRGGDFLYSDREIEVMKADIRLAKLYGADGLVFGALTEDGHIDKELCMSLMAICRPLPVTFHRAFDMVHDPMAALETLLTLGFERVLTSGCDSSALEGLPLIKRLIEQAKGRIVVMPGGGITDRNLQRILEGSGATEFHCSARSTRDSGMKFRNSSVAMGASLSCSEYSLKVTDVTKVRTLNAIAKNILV
UniProt O60911: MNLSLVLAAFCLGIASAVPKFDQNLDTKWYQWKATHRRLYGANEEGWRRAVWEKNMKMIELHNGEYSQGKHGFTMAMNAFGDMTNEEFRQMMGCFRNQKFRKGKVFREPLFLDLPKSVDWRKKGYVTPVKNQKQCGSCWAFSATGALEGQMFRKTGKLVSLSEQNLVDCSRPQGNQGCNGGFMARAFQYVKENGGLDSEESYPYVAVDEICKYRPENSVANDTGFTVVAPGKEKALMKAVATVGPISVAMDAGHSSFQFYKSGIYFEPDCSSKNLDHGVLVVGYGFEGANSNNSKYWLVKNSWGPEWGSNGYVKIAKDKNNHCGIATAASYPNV
UniProt Q9H0L4: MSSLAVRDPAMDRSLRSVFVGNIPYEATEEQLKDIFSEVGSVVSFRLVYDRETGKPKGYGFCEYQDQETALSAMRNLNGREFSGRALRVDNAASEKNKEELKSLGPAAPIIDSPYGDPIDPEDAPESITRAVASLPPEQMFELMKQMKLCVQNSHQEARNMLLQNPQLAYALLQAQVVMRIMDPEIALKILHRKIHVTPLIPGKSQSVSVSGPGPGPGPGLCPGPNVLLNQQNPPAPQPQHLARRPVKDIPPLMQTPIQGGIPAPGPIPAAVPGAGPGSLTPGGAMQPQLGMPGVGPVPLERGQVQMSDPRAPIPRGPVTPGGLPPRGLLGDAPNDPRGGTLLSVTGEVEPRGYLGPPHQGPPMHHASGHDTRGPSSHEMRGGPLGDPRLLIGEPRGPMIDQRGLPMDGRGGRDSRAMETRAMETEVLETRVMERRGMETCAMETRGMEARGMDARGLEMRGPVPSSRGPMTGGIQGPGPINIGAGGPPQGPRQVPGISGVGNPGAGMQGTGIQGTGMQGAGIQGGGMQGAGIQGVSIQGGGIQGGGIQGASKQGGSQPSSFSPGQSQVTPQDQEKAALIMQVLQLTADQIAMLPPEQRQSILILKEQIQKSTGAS
UniProt Q8NA75: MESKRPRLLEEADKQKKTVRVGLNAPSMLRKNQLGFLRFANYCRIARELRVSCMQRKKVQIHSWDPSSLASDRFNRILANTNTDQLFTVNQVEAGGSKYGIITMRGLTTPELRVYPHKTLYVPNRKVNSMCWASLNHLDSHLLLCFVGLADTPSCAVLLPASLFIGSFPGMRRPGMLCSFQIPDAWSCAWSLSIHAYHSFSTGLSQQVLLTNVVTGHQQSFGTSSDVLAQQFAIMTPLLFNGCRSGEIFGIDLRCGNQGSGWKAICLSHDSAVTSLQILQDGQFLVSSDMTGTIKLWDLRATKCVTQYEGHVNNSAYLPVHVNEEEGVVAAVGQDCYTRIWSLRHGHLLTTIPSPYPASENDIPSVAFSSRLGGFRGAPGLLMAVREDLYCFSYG
UniProt P50461: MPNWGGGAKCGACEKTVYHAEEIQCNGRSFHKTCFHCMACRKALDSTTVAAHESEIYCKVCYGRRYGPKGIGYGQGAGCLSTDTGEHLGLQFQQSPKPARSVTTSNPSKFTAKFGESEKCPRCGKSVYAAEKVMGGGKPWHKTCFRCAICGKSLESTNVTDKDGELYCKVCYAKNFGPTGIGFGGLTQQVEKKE
UniProt Q96SQ9: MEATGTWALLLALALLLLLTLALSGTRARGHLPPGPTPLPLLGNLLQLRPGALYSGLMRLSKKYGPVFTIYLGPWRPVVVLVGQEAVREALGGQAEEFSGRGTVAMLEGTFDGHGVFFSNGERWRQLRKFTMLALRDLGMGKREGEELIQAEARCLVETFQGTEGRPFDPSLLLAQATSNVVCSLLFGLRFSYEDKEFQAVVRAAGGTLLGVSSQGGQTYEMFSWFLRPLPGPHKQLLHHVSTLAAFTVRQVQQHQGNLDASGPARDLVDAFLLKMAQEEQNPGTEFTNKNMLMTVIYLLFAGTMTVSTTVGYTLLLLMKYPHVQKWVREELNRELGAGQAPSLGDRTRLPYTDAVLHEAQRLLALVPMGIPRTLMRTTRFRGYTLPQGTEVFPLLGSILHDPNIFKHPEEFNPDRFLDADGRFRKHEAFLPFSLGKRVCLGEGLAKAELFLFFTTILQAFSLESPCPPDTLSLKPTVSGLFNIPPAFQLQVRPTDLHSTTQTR
UniProt Q96C57: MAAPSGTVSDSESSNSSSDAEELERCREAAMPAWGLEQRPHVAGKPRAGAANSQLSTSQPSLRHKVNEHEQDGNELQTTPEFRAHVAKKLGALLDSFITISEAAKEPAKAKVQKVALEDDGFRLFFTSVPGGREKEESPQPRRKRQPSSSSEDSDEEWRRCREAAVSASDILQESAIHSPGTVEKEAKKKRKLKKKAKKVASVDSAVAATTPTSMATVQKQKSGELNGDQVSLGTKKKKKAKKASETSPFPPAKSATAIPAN

What was measured:
Assay in all cases: log2 fold change, soluble protein after heating vs DMSO (PISA); higher = thermal stabilisation; K562 cells, 10 uM, 30 min; active = over 0.2 and 3.5 SD of the protein, either way, in both replicates (recomputed)
[1] = compound: Cc1ccc(NC(=O)c2ccc(CN3CC[C@H](N(C)C)C3)c(C(F)(F)F)c2)cc1Nc1nccc(-c2cncnc2)n1 [bafetinib]
Method in brief: (§1)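 Soluble protein was quantified by TMTpro 16plex LC-MS/MS after channel sums were equalised. It was obtained as the supernatant after 21,000xg for 90 min from pooled aliquots of K562 cells (2×10^6 cells/mL, 10 μM compound, 30 min) heated for 3 min across 48°C-58°C and extracted in PBS with 0.5% NP-40 at 4°C. Thermal stability values are relative to control samples and come from duplicates. They are given as log2 fold changes.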

[2] = compound: Cc1cccc(CC(=O)N2CCc3c2ccc(-c2cn(C)c4ncnc(N)c24)c3F)n1
Method in brief: as §1

[3] = compound: Cc1cn(-c2cc(NC(=O)c3ccc(C)c(Nc4nccc(-c5cccnc5)n4)c3)cc(C(F)(F)F)c2)cn1 [nilotinib]
Method in brief: as §1

[4] = compound: Cc1nc(Nc2n[nH]c3c2CN(C(=O)N[C@H](CN(C)C)c2ccccc2)C3(C)C)c2sccc2n1
Method in brief: as §1

[5] = compound: Cc1nc(Nc2ncc(C(=O)Nc3c(C)cccc3Cl)s2)cc(N2CCN(CCO)CC2)n1 [dasatinib]
Method in brief: as §1

[6] = compound: Cc1ncc(-c2ccnc(Nc3ccc(S(C)(=O)=O)cc3)n2)n1C(C)C
Method in brief: as §1

[7] = compound: Cn1cc(-c2ccc3c(c2)CCN3C(=O)Cc2cccc(C(F)(F)F)c2)c2c(N)ncnc21
Method in brief: as §1

[8] = compound: Cn1cc(-c2ccc3nnc(C(F)(F)c4ccc5ncccc5c4)n3n2)cn1
Method in brief: as §1

[9] = compound: Cn1cncc1[C@@](N)(c1ccc(Cl)cc1)c1ccc2c(c1)c(-c1cccc(Cl)c1)cc(=O)n2C [tipifarnib]
Method in brief: as §1

[10] = compound: FC(F)(F)c1ccc(/C=C/c2nc(COc3ccc(CCCCn4ccnn4)cc3)co2)cc1 [mubritinib]
Method in brief: as §1

[11] = compound: NC(=O)Nc1cc(-c2cccc(F)c2)sc1C(=O)N[C@H]1CCCNC1
Method in brief: as §1

[12] = compound: NC(=O)c1cnc(N[C@@H]2CCCC[C@@H]2N)nc1Nc1cccc(-n2nccn2)c1
Method in brief: as §1

[13] = compound: NC1(c2ccc(-c3nc4ccn5c(=O)[nH]nc5c4cc3-c3ccccc3)cc2)CCC1
Method in brief: as §1

[14] = compound: NCC(=O)Nc1ccc(-n2nc(C(F)(F)F)cc2-c2ccc3c(ccc4ccccc43)c2)cc1
Method in brief: as §1

[15] = compound: Nc1ccccc1NC(=O)c1ccc(CNC(=O)OCc2cccnc2)cc1 [entinostat]
Method in brief: as §1

[16] = compound: O=C(CCCCCCC(=O)Nc1ccccc1)NO [vorinostat]
Method in brief: as §1

[17] = compound: O=C(CCCCCCNC(=O)c1cnc(N(c2ccccc2)c2ccccc2Cl)nc1)NO [citarinostat]
Method in brief: as §1

[18] = compound: O=C(O)c1ccc2c(c1)nc(Nc1cccc(Cl)c1)c1ccncc12 [silmitasertib]
Method in brief: as §1

[19] = compound: O=C1NC(=O)C(c2cnc3ccccn23)=C1c1cn2c3c(cc(F)cc13)CN(C(=O)N1CCCCC1)CC2
Method in brief: as §1

[20] = compound: c1cc(OCCN2CCCCC2)cc(-c2n[nH]c3ccc(-c4nnc[nH]4)cc23)c1
Method in brief: as §1

Measured: log2 fold change

DAZAP1 (UniProt Q96EP5)
inactive: [1] -0.009 | [2] -0.091 | [3] 0.001 | [4] 0.082 | [5] 0.073 | [6] 0.125 | [7] -0.051 | [8] -0.022 | [9] 0.01 | [10] -0.051 | [11] 0.002 | [12] 0.025 | [13] 0.15 | [14] 0.034 | [15] -0.069 | [16] 0.006 | [17] -0.038 | [18] -0.028 | [19] 0.092 | [20] -0.019

CUTC (UniProt Q9NTM9)
inactive: [1] -0.015 | [2] -0.011 | [3] 0.035 | [4] 0.053 | [5] -0.022 | [6] 0 | [7] 0.031 | [8] 0.066 | [9] -0.012 | [10] 0.051 | [11] 0.047 | [12] -0.084 | [13] -0.031 | [14] 0.031 | [15] 0.009 | [16] -0.002 | [17] 0.03 | [18] -0.042 | [19] -0.109 | [20] -0.064

CTSV (UniProt O60911)
active: [1] -0.696
inactive: [2] -0.24 | [3] 0.036 | [4] 0.142 | [5] 0.061 | [6] -0.056 | [7] 0.016 | [8] -0.002 | [9] 0.026 | [10] -0.009 | [11] 0 | [12] -0.066 | [13] -0.296 | [14] -0.052 | [15] -0.063 | [16] -0.029 | [17] -0.008 | [18] 0.027 | [19] -0.105 | [20] 0.165

CSTF2T (UniProt Q9H0L4)
inactive: [1] -0.019 | [2] -0.025 | [3] -0.016 | [4] 0.086 | [5] 0.011 | [6] 0.062 | [7] -0.018 | [8] 0.011 | [9] -0.018 | [10] 0.03 | [11] 0.005 | [12] -0.029 | [13] -0.004 | [14] -0.015 | [15] -0.014 | [16] 0.016 | [17] 0.025 | [18] 0.014 | [19] 0.052 | [20] 0.05

DCAF4L2 (UniProt Q8NA75)
inactive: [1] -0.059 | [2] 0.042 | [3] -0.001 | [4] 0.01 | [5] 0.018 | [6] 0.039 | [7] 0.009 | [8] 0.124 | [9] 0.014 | [10] 0.048 | [11] 0.019 | [12] 0.06 | [13] -0.114 | [14] -0.041 | [15] -0.067 | [16] 0.032 | [17] 0.209 | [18] 0.063 | [20] -0.124

CSRP3 (UniProt P50461)
inactive: [1] -0.156 | [2] -0.032 | [3] 0.012 | [4] -0.055 | [6] -0.044 | [7] 0.009 | [8] 0.032 | [9] -0.012 | [10] 0.035 | [11] -0.033 | [12] -0.063 | [13] 0.008 | [14] 0.012 | [15] -0.028 | [16] -0.041 | [17] 0 | [18] 0.088 | [20] -0.013

CYP2S1 isoform 2 (UniProt Q96SQ9)
inactive: [1] 0.166 | [2] 0.137 | [5] 0.137 | [7] 0.103 | [8] -0.034 | [10] 0.206 | [11] -0.064 | [12] -0.088 | [13] 0.371 | [15] -0.183 | [16] 0.375 | [18] 0.166

CUSTOS (UniProt Q96C57)
inactive: [1] -0.057 | [2] -0.062 | [3] 0.026 | [4] -0.009 | [5] 0.027 | [6] 0.001 | [7] 0.039 | [8] 0.004 | [9] 0.028 | [10] 0.015 | [11] 0.064 | [12] -0.006 | [13] 0.023 | [14] 0.016 | [15] -0.012 | [16] -0.014 | [17] 0.027 | [18] -0.004 | [19] 0.035 | [20] -0.027
